Assay results from PubChem BioAssay AID504444 (National Center for Advancing Translational Sciences (NCATS), 2011).
Out of some 360,000 compounds screened, about 7,500 (2.1%) were called active. The inconclusive results got no clear call from the source; some entries with a clear call stand among them for comparison. The call rests on the fitted dose curve; in most records, active means well fitted inhibition curve with a large enough effect; inconclusive means small, poorly fitted or top-dose-only effect, or effect the other way; inactive means flat fitted curve, though single readings scatter. Where the call is inconclusive, the potency comes from a doubtful curve fit.

Test: Nrf2 qHTS screen for inhibitors; further: nearly all actives have a fitted effect of over 60% in size
Settings: A549 ARE-Fluc reporter, luciferase luminescence, 18-24 h; series mostly up to 46 µM
Procedure, shortened: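 Quantitative HTS in A549 cells stably bearing an antioxidant response element-firefly luciferase construct. Inhibition of Nrf2-driven transcription was scored by luminescence after 18-24 h of compound exposure at 37 °C.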
Potency means the concentration at half of the fitted maximal effect.

Compound | Potency
CCc1cccc(CC)c1NC(=S)NCc1ccc2[nH]c(C)cc2c1 | inconclusive: 13 µM [falling, partial curve, poor fit]
COc1cccc(NC(=O)Cn2c(=O)n(-c3cccc(OC)c3)c(=O)c3sc4ccccc4c32)c1 | inconclusive: 20.6 µM [falling, single point]
Cc1oc(-c2ccc(-c3ccccc3)cc2)nc1CN(CCO)C(C)C | inconclusive: 16.4 µM [activator, partial curve]
Cc1ccccc1Nc1c([N+](=O)[O-])ccc2nonc12 | inconclusive: 29.1 µM [falling, single point]
COc1ccc(C)cc1NC(=O)C1CCCN(S(=O)(=O)c2ccc3c(c2)CCCN3C(C)=O)C1 (stereo not drawn) | inconclusive: 13 µM [falling, partial curve, poor fit]
O=S(=O)(c1ccccc1C(F)(F)F)N1CCN(c2nc(-c3ccccc3)nc3ccccc23)CC1 | inconclusive: 20.6 µM [activator, single point]
COC(=O)c1sc(NC(=O)C2c3ccccc3Oc3ccccc32)c(C(=O)OC)c1C | inconclusive: 29.1 µM [falling, single point]
O=C1c2ccccc2NC(c2ccc(O)cc2)N1Cc1ccco1 (stereo not drawn) | inconclusive: 36.6 µM [falling, partial curve, poor fit]
O=C(c1cc2nc(-c3ccco3)cc(C(F)(F)F)n2n1)N1CCc2ccccc2C1 | inconclusive: 29.1 µM [falling, single point]
Cc1cccc(OCC(=O)Nc2ccc(N3CCN(C(=O)c4ccccc4)CC3)cc2)c1C | inconclusive: 18.4 µM [falling, single point]
Cc1ccc(C(=O)C[n+]2ccc(Cc3ccccc3)cc2)cc1 | inactive
O=C(CNc1cccc(Cl)c1)c1ccc(Cl)cc1 | inconclusive: 23.1 µM [activator, single point]
CCOC(=O)c1cc2sccc2n1CCCN1C(=O)c2ccccc2C1=O | inconclusive: 29.1 µM [falling, single point]
Cc1ccc(C(=O)Oc2ccc(C(=O)COC(=O)C3CC(=O)N(Cc4ccco4)C3)cc2)cc1 (stereo not drawn) | inconclusive: 4.61 µM [falling, partial curve, poor fit]
Fc1cccc(NCc2ccccc2-c2nnc(-c3ccccc3Cl)o2)c1 | inconclusive: 5.8 µM [activator, full curve]
CS(=O)(=O)N1N=C(c2ccc(Br)cc2)CC1c1cccs1 (stereo not drawn) | inconclusive: 6.51 µM [activator, partial curve]
Nc1nc(-c2ccccn2)nc(N)c1Cc1ccccc1F | inconclusive: 0.731 µM [activator, full curve]
Oc1ccc(C=NNC(=S)Nc2cccnc2)nc1 | inconclusive: 29.1 µM [falling, single point]
COc1ccc(-c2oc3ccc(-c4cc(OC)c(OC)c(OC)c4)cc3c2-c2ccc(OC)nc2)cc1 | inactive
O=C(Nc1cc(SCCO)cc([N+](=O)[O-])c1)c1ccc(Br)o1 | inconclusive: 23.1 µM [falling, partial curve, poor fit]
Cc1cccnc1NC(=O)c1ccc2c(c1)OCCO2 | inconclusive: 7.31 µM [activator, partial curve]

Compound | Potency
C=CCOc1ccc2c(c1)CCC1C2CCC2(C)C(O)C(O)CC12 (stereo not drawn) | inconclusive: 8.2 µM [activator, partial curve, poor fit]
O=C(c1ccc(Br)o1)N1CCN(Cc2ccc3c(c2)OCO3)CC1 | inconclusive: 5.8 µM [falling, partial curve, poor fit]
CCOC(=O)c1c(-c2ccccc2)cn2c(C)cc(C)nc12 | inconclusive: 18.4 µM [activator, partial curve]
CS(=O)(=O)N(CC(=O)Nc1ccc(S(=O)(=O)N2CCOCC2)cc1)c1cccc(F)c1 | inconclusive: 29.1 µM [falling, single point]
Cc1ccc(Cn2ncc3c4sc(C)cc4n(C)c3c2=O)c(C)c1 | inconclusive: 2.06 µM [falling, partial curve, poor fit]
O=C(Cn1nnc(-c2ccccc2F)n1)Nc1ccc(S(=O)(=O)NC2CCCC2)cc1 | inconclusive: 16.4 µM [falling, single point]
CC(C)(C)c1cc(P(=O)(c2ccccc2)c2ccccc2)ccc1O | inconclusive: 23.1 µM [falling, single point]
NC(=S)NN=C1c2cc(S(=O)(=O)N3CCOCC3)ccc2-c2ccc(S(=O)(=O)N3CCOCC3)cc21 | inconclusive: 29.1 µM [falling, partial curve, poor fit]
Cc1ccc(N2C(=O)/C(=C/c3cccnc3)SC2=S)cc1 | inactive
O=C(NCC(O)c1ccc([N+](=O)[O-])cc1)c1cccc(S(=O)(=O)N2CCCC2)c1 (stereo not drawn) | inconclusive: 23.1 µM [falling, single point]
CN(c1cccc(Cl)c1)S(=O)(=O)c1cccc(C(=O)Nc2ccc3c(c2)CCC3)c1 | inconclusive: 29.1 µM [falling, single point]
O=C(c1cc(-c2ccccc2Cl)on1)N1CCCC1 | inconclusive: 1.64 µM [activator, full curve]
Fc1ccccc1N1CCN(c2nnc(C(F)(F)F)c3nnn(Cc4ccccc4)c23)CC1 | inactive
O=C1CSC(c2ccccn2)N1c1ccc(C(F)(F)F)cc1 (stereo not drawn) | inconclusive: 23.1 µM [falling, partial curve, poor fit]
O=C(Cn1c(SCCOc2ccccc2Cl)nc2ccccc21)N1CCOCC1 | inactive
O=C(Nc1ccccc1Oc1ccccc1)c1cccs1 | inactive
Cc1ccc(C(=O)C[n+]2ccc(-c3nnc4n3CCC4)cc2)cc1 | inactive
Cc1ccc2c(c1)nnn2C1CCN(C(=O)c2cccs2)CC1 | inconclusive: 29.1 µM [falling, single point]
O=S(=O)(c1ccc(F)cc1)N1CCN(CCc2ccccc2)CC1 | inconclusive: 29.1 µM [falling, single point]
Cc1ccc(Cn2cc(CCC(=O)O)c3ccccc32)cc1 | inconclusive: 29.1 µM [falling, partial curve, poor fit]
Fc1ccc(-c2nc(-c3cccs3)no2)cc1 | inconclusive: 29.1 µM [activator, single point]

Compound | Potency
CC(C)Oc1cccc(C(=O)NC(=S)NCc2cccnc2)c1 | inconclusive: 29.1 µM [falling, single point]
O=C(Nc1cccc(Cl)c1)C1CCN(c2nc3ccccc3nc2C(F)(F)F)CC1 | inconclusive: 20.6 µM [falling, single point]
COc1ccc(C2=NCN(c3ccc(C)cc3)C(=S)N2)cc1 | inconclusive: 3.66 µM [activator, partial curve, poor fit]
CCc1cccc(NC(=O)c2cc(-c3ccccc3)n[nH]2)c1 | inconclusive: 25.9 µM [activator, single point]
NC(=O)N/N=C/c1cn(-c2ccccc2)nc1-c1cccs1 | inconclusive: 10.3 µM [activator, partial curve]
CCOc1cc(C(=S)N2CCOCC2)ccc1OS(=O)(=O)c1ccc(OC)cc1 | inconclusive: 29.1 µM [falling, single point]
COc1ccccc1Cn1ccn(CC(=O)Nc2c(C)cc(C)cc2C)c(=O)c1=O | inconclusive: 29.1 µM [falling, single point]
c1ccc(CSc2ncnc3c2ncn3C2CCCCO2)cc1 (stereo not drawn) | inconclusive: 7.31 µM [activator, partial curve]
CCOc1cccc(-c2cc(C(=O)Nc3ccon3)c3ccccc3n2)c1 | inconclusive: 13 µM [falling, partial curve]
Cc1ccc(-n2nc(C)c3c(C)cc(=O)n(CC(=O)Nc4ccc(C(C)C)cc4)c32)cc1 | inconclusive: 20.6 µM [activator, partial curve, poor fit]
Cc1ccc(-n2ncc3c2CC(C)(C)CC3NC(=O)Cc2c(C)noc2C)cc1 (stereo not drawn) | inconclusive: 29.1 µM [falling, single point]
CCOc1ccc(/C=N/NC(=S)Nc2c(C)cccc2C)cc1 | inconclusive: 29.1 µM [falling, single point]
O=C(O)c1ccc2c(c1)C(=O)N(CCc1c[nH]c3ccccc13)C2=O | inconclusive: 8.2 µM [activator, partial curve]
Cc1ccc2nc(NC(=O)[C@H](C)N3C(=O)C4CC=CCC4C3=O)sc2c1 (stereo partly drawn) | inconclusive: 5.8 µM [activator, full curve]
Cc1ccc(-c2ccccc2[C@@H]2C[C@H]3CN(C)C(=O)[C@]34CCCN24)o1 | inconclusive: 20.6 µM [falling, partial curve, poor fit]
Cc1cc(OC(C)C(=O)N2CCN(CCc3ccccn3)CC2)ccc1Cl (stereo not drawn) | inactive
COC(=O)c1cc(S(=O)(=O)NCc2ccccc2OC)cn1C | inconclusive: 14.6 µM [falling, partial curve, poor fit]
Cc1nc2c(c(SCC(=O)Nc3ccccc3C(F)(F)F)n1)CCC2 | inconclusive: 32.6 µM [falling, partial curve, poor fit]
CC(C)N(Cc1ccccc1)C(=O)c1cc2ccc3cccnc3c2[nH]1 | inconclusive: 0.651 µM [activator, partial curve, poor fit]
C=CCOc1ccccc1C1C2=C(CC(C)(C)CC2=O)Nc2c1c(=O)n(C)c(=O)n2C (stereo not drawn) | inactive
CC(C)(C)NC(=O)C[C@H]1C[C@H](C(=O)N2CCOCC2)[C@@]2(CCC3CCCC3)c3[nH]c4cc(-c5ccco5)ccc4c3CCN2C1=O | inconclusive: 18.4 µM [falling, single point]

An excerpt from above in order of molar mass, rising:
Compound | Potency
Cc1cccnc1NC(=O)c1ccc2c(c1)OCCO2 | inconclusive: 7.31 µM [activator, partial curve]
O=C(c1cc(-c2ccccc2Cl)on1)N1CCCC1 | inconclusive: 1.64 µM [activator, full curve]
O=C(Nc1ccccc1Oc1ccccc1)c1cccs1 | inactive
NC(=O)N/N=C/c1cn(-c2ccccc2)nc1-c1cccs1 | inconclusive: 10.3 µM [activator, partial curve]
O=C1c2ccccc2NC(c2ccc(O)cc2)N1Cc1ccco1 (stereo not drawn) | inconclusive: 36.6 µM [falling, partial curve, poor fit]
C=CCOc1ccc2c(c1)CCC1C2CCC2(C)C(O)C(O)CC12 (stereo not drawn) | inconclusive: 8.2 µM [activator, partial curve, poor fit]
CCc1cccc(CC)c1NC(=S)NCc1ccc2[nH]c(C)cc2c1 | inconclusive: 13 µM [falling, partial curve, poor fit]
Cc1nc2c(c(SCC(=O)Nc3ccccc3C(F)(F)F)n1)CCC2 | inconclusive: 32.6 µM [falling, partial curve, poor fit]
C=CCOc1ccccc1C1C2=C(CC(C)(C)CC2=O)Nc2c1c(=O)n(C)c(=O)n2C (stereo not drawn) | inactive
O=C(Nc1cccc(Cl)c1)C1CCN(c2nc3ccccc3nc2C(F)(F)F)CC1 | inconclusive: 20.6 µM [falling, single point]
COc1cccc(NC(=O)Cn2c(=O)n(-c3cccc(OC)c3)c(=O)c3sc4ccccc4c32)c1 | inconclusive: 20.6 µM [falling, single point]
NC(=S)NN=C1c2cc(S(=O)(=O)N3CCOCC3)ccc2-c2ccc(S(=O)(=O)N3CCOCC3)cc21 | inconclusive: 29.1 µM [falling, partial curve, poor fit]
CC(C)(C)NC(=O)C[C@H]1C[C@H](C(=O)N2CCOCC2)[C@@]2(CCC3CCCC3)c3[nH]c4cc(-c5ccco5)ccc4c3CCN2C1=O | inconclusive: 18.4 µM [falling, single point]
